Laboratory results: PubChem BioAssay AID1259308 (NCATS, 2017)

Purpose: 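Candidate targets for better recombinant protein yield in mammalian cells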 (primary screen)
System: human HEK293 embryonic kidney cells stably expressing firefly luciferase (HEK-CMV-Luc2-Hygro)
Reagents: single siRNA against human genes, 0.8 pmol siRNA per well
Timing: 72 h
Read-out: 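Reporter luminescence and viable-cell signal on separate replicate plates, given as percent of non-targeting control and median/MAD z-scores, plus per-cell luciferase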
Reading the numbers: total luciferase, z-score and total luciferase, % of control: higher = more reporter protein produced
Rule for the call: 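Active when the median/MAD z-score for overall luciferase is greater than 3; a gene was taken forward for validation with new siRNAs if at least two of its three siRNAs passed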
Meaning of the calls: active = raised luciferase; inactive = no rise
This is an unselected part of about 59,000 deposited reagents. About 1,510 of all reagents (2.6%) were called active. 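Calls use total luciferase alone and ignore viability, so some active siRNAs may act by altering cell number.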 Reagents against one gene are numbered here. Further read-outs or replicates are left out here. Reagent sequences are not shown.

no.	Gene	reagent no.	total luciferase, z-score	total luciferase, % of control	call
1	MAP10	1	-1.53	51.4	inactive
2	MAP10	2	-0.573	70.5	inactive
3	MAP10	3	1.13	104	inactive
4	TMEM74B	1	0.212	86.1	inactive
5	TMEM74B	2	0.0664	83.2	inactive
6	TMEM74B	3	-1.54	51.3	inactive
7	HRG	1	1.28	107	inactive
8	HRG	2	-0.156	78.8	inactive
9	HRG	3	0.462	91.1	inactive
10	SH2D1A	1	0.343	88.7	inactive
11	SH2D1A	2	0.995	102	inactive
12	SH2D1A	3	0.304	87.9	inactive
13	JPX	1	1.54	113	inactive
14	JPX	2	-0.795	66.1	inactive
15	JPX	3	0.783	97.5	inactive
16	PDYN	1	3.43	150	active
17	PDYN	2	0.333	88.5	inactive
18	PDYN	3	-0.425	73.4	inactive
19	RUVBL1	1	0.329	88.4	inactive
20	RUVBL1	2	0.877	99.3	inactive
21	RUVBL1	3	-0.05	80.9	inactive
22	UTP23	1	-2.1	40.1	inactive
23	UTP23	2	-1.99	42.2	inactive
24	UTP23	3	-1.42	53.5	inactive
25	CENPX	1	-1.55	51	inactive
26	CENPX	2	0.2	85.9	inactive
27	CENPX	3	-0.966	62.7	inactive
28	IDS	1	-0.678	68.4	inactive
29	IDS	2	0.982	101	inactive
30	IDS	3	0.932	100	inactive
31	MKRN3	1	1.34	108	inactive
32	MKRN3	2	-0.717	67.6	inactive
33	MKRN3	3	-0.101	79.9	inactive
34	KLHDC10	1	-0.114	79.6	inactive
35	KLHDC10	2	0.785	97.5	inactive
36	KLHDC10	3	1.57	113	inactive
37	TSPAN9	1	-0.18	78.3	inactive
38	TSPAN9	2	0.074	83.4	inactive
39	TSPAN9	3	-0.574	70.5	inactive

An excerpt of the results above, for reference:
no.	Gene	reagent no.	total luciferase, z-score	total luciferase, % of control	call
3	MAP10	3	1.13	104	inactive
4	TMEM74B	1	0.212	86.1	inactive
5	TMEM74B	2	0.0664	83.2	inactive
6	TMEM74B	3	-1.54	51.3	inactive
